# Literature values, collected in patent US20220213524A1, “KINASE SCREENING ASSAYS” (University of Newcastle upon Tyne, priority 2019, published 2022).
# For at least one compound, name, drawing or mass did not settle the structure.
# Columns and labels:
# INCENP S446ph = details: previously shown (Hegemann et al., 2011); cited from earlier work
# kinases = details: Bamborough et al., 2008; cited from earlier work
structure (smiles),measurement,setting,value
CCS(=O)(=O)Nc1ccc2c(c1)/C(=C(/Nc1ccc(CN3CCCCC3)cc1)c1ccccc1)C(=O)N2 [Hesperadin],sensitivity of INCENP S446 phosphorylation to inhibitor,INCENP S446ph,sensitive
same,selectivity of inhibitor,kinases,relatively non-selective
